Binding data for 1 substance are collected here from PMC11344771.

Protein sequences, listed by entry. Tags and fused reporters are not part of them. Residues count along the entry.
UniProt O08816, residues 142-273: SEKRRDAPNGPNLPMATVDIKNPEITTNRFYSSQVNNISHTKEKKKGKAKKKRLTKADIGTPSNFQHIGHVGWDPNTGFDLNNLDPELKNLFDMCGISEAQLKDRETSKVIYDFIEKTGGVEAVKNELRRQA
UniProt P60953: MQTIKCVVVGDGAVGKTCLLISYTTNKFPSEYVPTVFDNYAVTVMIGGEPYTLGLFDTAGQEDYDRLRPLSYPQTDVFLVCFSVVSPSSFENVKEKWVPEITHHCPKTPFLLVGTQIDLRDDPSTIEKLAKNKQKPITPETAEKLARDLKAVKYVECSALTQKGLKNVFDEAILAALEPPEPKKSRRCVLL

These are yes or no findings as the source states them, for the method shown. Some results given as binding are weak or reduced against the parent protein; the word gives no strength.

The target in the assay is N-WASP BR-GBD_(142-273) (Rattus norvegicus) (UniProt O08816). The assay is described as follows: fluorescence stopped-flow; association: 1 µM mGppNHp-bound Cdc42 mixed with 1 µM N-WASP BR-GBD; 30 mM Tris-HCl, 10 mM K2HPO4/KH2PO4 pH 8.5, 5 mM MgCl2, 3 mM DTT, 25 °C; both purified.

Take “Cdc42 bound to a non-hydrolysable GTP analogue (Cdc42_(GppNHp)) (from UniProt P60953 1-191)”: the binding entry is recorded as “binds”.
